Results published in PubChem BioAssay AID493014 (National Center for Advancing Translational Sciences (NCATS), 2011).
Some of the results follow. These are further read-outs of the screen, such as a control signal, another cell line or another target. No call is given for them. The list favours compounds with an active or inconclusive main result. Words in brackets tell the shape of the fitted curve; partial curves, single points and poor fits give uncertain potencies.

Experiment: qHTS Assay to Find Inhibitors of Chronic Active B-Cell Receptor Signaling
Settings: ABC-DLBCL IkBa-CBG/CBR reporter, luminescence ratio (green luciferase fused to IkBa over red control in TMD8 lymphoma cells), 4 h
Outline: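 Compounds up to 46 uM were incubated four hours with TMD8 cells whose green CBG68 luciferase is fused to IkappaBalpha; red CBR luminescence normalised the signal, and concentration-effect curves were fitted to fusion, red and ratio data.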

[1] = measured here: CBR red luminescence, cell number
[2] = measured here: IkBa-CBG green luminescence

| SMILES | AC50 [1] | AC50 [2] |
| --- | --- | --- |
| CCN=C1SC(CC(=O)NC(C)C)C(=O)N1CC (stereo unspecified) | 0.206 µM [falling, full curve] | – |
| CC(=O)[C@@]1(O)[C@H](C)CC2C3CC=C4CC(OP(=O)(O)O)CC[C@]4(C)C3CC[C@@]21C (stereo partly specified) | 3.55 µM [rising, partial curve] | – |
| CC(C)NC(=O)CSc1nnc(-c2ccc(F)cc2)c2ccccc12 | 12.6 µM [falling, single point] | – |
| COc1ccccc1/C=N/NC(=O)c1cc2c(OC)c(OC)ccc2[nH]1 | 2.51 µM [rising, full curve, poor fit] | – |
| CSc1nc2c(c(=O)n1C)SC(C)C2 (stereo unspecified) | 20.6 µM [rising, partial curve, poor fit] | – |
| COC(=O)c1cc2c(ccn2-c2ccc(F)cc2)n1Cc1cccc(OC)c1 | 0.82 µM [rising, full curve, poor fit] | – |
| Cc1cc(NC(=O)c2sc(Nc3ccc(F)cc3)nc2N)no1 | 12.6 µM [falling, partial curve, poor fit] | 12.6 µM [rising, partial curve, poor fit] |
| O=C(c1ccco1)N1CCN(C(=O)c2cccc3c2C(=O)N(Cc2cccnc2)C3)CC1 | 29.1 µM [falling, single point] | – |
| Clc1ccc2c(N/N=C/c3cccnc3)ccnc2c1 | 12.6 µM [falling, single point] | – |
| CCOC(=O)CNS(=O)(=O)c1cc(-c2nnc(Nc3ccc4c(c3)OCO4)c3ccccc23)ccc1C | 13 µM [falling, partial curve] | – |
| Clc1ccc(-c2cn3nc4c(nc3n2)CCCC4)cc1 | 14.6 µM [falling, single point] | – |
| CCCNC(=O)c1cc(-c2ccco2)on1 | 9.2 µM [falling, partial curve] | – |
| COc1ccc(NC(=O)c2ccc(-c3csc(C)n3)cc2)cc1 | 6.31 µM [falling, single point] | – |
| O=C(Oc1ccccc1C(=S)N1CCOCC1)c1ccccc1 | 3.55 µM [rising, full curve, poor fit] | – |
| COc1cccc(-c2ccc(NC(=O)C3CCCN(Cc4cnc(N(C)C)s4)C3)cc2)c1 (stereo unspecified) | 22.4 µM [falling, single point] | – |
| CC(CCc1ccccc1)NC(=O)C(C)OC(=O)c1ccco1 (stereo unspecified) | 8.2 µM [rising, partial curve, poor fit] | – |
| COc1ccccc1NC(=O)Cc1coc2cc(C)ccc12 | 0.146 µM [falling, full curve, poor fit] | – |
| Cc1ccc(S(=O)(=O)CCC(=O)Oc2ccc(-c3nnco3)cc2)cc1 | 16.4 µM [falling, single point] | – |
| CNC(=O)COC(=O)/C=C/c1nc2ccccc2s1 | 3.55 µM [falling, full curve] | – |
| Cc1cccc(OCc2nc(-c3cccnc3)no2)c1 | 0.461 µM [rising, full curve, poor fit] | – |
| COc1ccc(C(=O)Nc2ccccc2C(=O)NC(Cc2ccc(O)cc2)C(=O)NNC(=O)c2ccccc2Cl)cc1 (stereo unspecified) | 29.1 µM [falling, single point] | – |
| COC(=O)c1sc(NC(=O)CSc2nnc(C(C)C)n2C)nc1C | 6.51 µM [falling, partial curve, poor fit] | – |

| SMILES | AC50 [1] | AC50 [2] |
| --- | --- | --- |
| COc1cc(NC(=O)c2cc([N+](=O)[O-])ccc2Br)ccc1NC(=O)c1ccco1 | 1.46 µM [falling, full curve] | – |
| O=C(O)c1cccc(Cn2c(Cl)c(/C=N/NC(=O)c3ccccc3)sc2=O)c1 | 10 µM [falling, partial curve, poor fit] | – |
| COC(=O)c1ccc(/C=C/c2ccc3cccc(OC(C)=O)c3n2)cc1 | 0.103 µM [falling, full curve] | – |
| COc1ccccc1OCCCOc1c(C)cc(C)cc1Br | 29.1 µM [rising, single point] | – |
| COc1ccc2[nH]c(C(=O)Nc3ccc(C)c(F)c3)cc2c1 | 3.98 µM [rising, partial curve, poor fit] | – |
| COC(=O)c1sc(N)c(C(=O)OC)c1COC(=O)C12CC3CC(CC(O)(C3)C1)C2 | 20 µM [rising, partial curve, poor fit] | – |
| Cn1c(=O)cc(SCC(=O)NCc2cccnc2)c2ccccc21 | 29.1 µM [rising, single point] | – |
| NC(=O)Cc1ccc(Nc2nnc(-c3ccc(O)cc3)c3ccccc23)cc1 | 29.1 µM [falling, single point] | – |
| CC1CCN(C(=O)c2ccc(SCc3ccccc3F)c([N+](=O)[O-])c2)CC1 | 1.84 µM [falling, partial curve, poor fit] | – |
| O=C(Nc1ccccc1)c1cc2ccccc2o1 | 1.84 µM [falling, full curve] | – |
| C/C(=N\NC(=O)c1nn(C)cc1Br)c1cccc(NC(=O)c2ccncc2)c1 | 8.2 µM [falling, partial curve] | – |
| CCc1ccc(NC(=O)Nc2cccc(OC)c2)cc1 | 8.91 µM [falling, partial curve] | – |
| O=C1c2cccc3c([N+](=O)[O-])c(O)cc(c23)C(=O)N1Nc1ccccc1 | 11.2 µM [falling, partial curve] | – |
| CCC(=O)N(Cc1cc(=O)[nH]c2ccccc12)c1cccc(C)c1 | 35.5 µM [falling, single point] | – |
| CCCCN(C(=O)C(C)Oc1ccc(Br)cc1)c1c(N)n(Cc2ccccc2)c(=O)[nH]c1=O (stereo unspecified) | 35.5 µM [falling, single point] | – |
| COc1cccc2cc(C(=O)Nc3ccc(S(=O)(=O)NCC4CCCO4)cc3)c(=O)oc12 (stereo unspecified) | 35.5 µM [rising, partial curve, poor fit] | – |
| COc1ccc(CNC(=O)C[C@H]2C(=O)N(CCc3ccccc3)C[C@@H]2Cc2ccccc2)cc1 | 35.5 µM [falling, single point] | – |
| COc1ccc(CCSc2nnc(C3CCCCC3)n2N)cc1 | 29.1 µM [falling, single point] | – |
| c1ccc(-c2ccc(-c3nc(-c4cccnc4)no3)cc2)cc1 | 6.31 µM [rising, single point] | – |
| O=C(COC(=O)c1ccccc1C(=O)c1ccc(Cl)c([N+](=O)[O-])c1)NC1CCCCCC1 | 7.31 µM [falling, partial curve] | – |
| Cc1ccc(SCCNS(C)(=O)=O)cc1 | 10.3 µM [rising, partial curve, poor fit] | – |
| CCCCN1C(=O)C2(NNc3ccccc3O2)c2ccccc21 (stereo unspecified) | 29.1 µM [falling, single point] | – |

5 successive entries from above, for reference:

| SMILES | AC50 [1] | AC50 [2] |
| --- | --- | --- |
| C/C(=N\NC(=O)c1nn(C)cc1Br)c1cccc(NC(=O)c2ccncc2)c1 | 8.2 µM [falling, partial curve] | – |
| CCc1ccc(NC(=O)Nc2cccc(OC)c2)cc1 | 8.91 µM [falling, partial curve] | – |
| O=C1c2cccc3c([N+](=O)[O-])c(O)cc(c23)C(=O)N1Nc1ccccc1 | 11.2 µM [falling, partial curve] | – |
| CCC(=O)N(Cc1cc(=O)[nH]c2ccccc12)c1cccc(C)c1 | 35.5 µM [falling, single point] | – |
| CCCCN(C(=O)C(C)Oc1ccc(Br)cc1)c1c(N)n(Cc2ccccc2)c(=O)[nH]c1=O (stereo unspecified) | 35.5 µM [falling, single point] | – |

The results go on:

| SMILES | AC50 [1] | AC50 [2] |
| --- | --- | --- |
| CC1CCN(c2nc(N(C)c3ccccc3)nc(N)c2[N+](=O)[O-])CC1 | 3.16 µM [rising, full curve] | – |
| CC1CC1c1ccc(/C=C(\C#N)C(=O)Nc2ccc(Cl)cc2)o1 (stereo unspecified) | 20.6 µM [falling, partial curve] | – |
| O=C(CSc1nc2ccccc2c(=O)n1-c1ccccc1Cl)NCC1CCCO1 (stereo unspecified) | 11.6 µM [rising, partial curve, poor fit] | – |
| CCOC(=O)COc1c(OC)cc(Cl)cc1C1Nc2ccccc2C(=O)N1c1ccc(F)cc1 (stereo unspecified) | 2.24 µM [falling, partial curve, poor fit] | – |
| CCOc1cc(/C=N/n2c(C)nnc2C)ccc1O | 35.5 µM [falling, single point] | – |
| COc1ccccc1/C=C/C(=O)c1ccccc1 | 11.2 µM [falling, partial curve] | – |
| CCCCNC(=O)c1onc(CSc2ccccc2C)c1C(=O)O | – | 35.5 µM [rising, partial curve, poor fit] |
| O=C(O)c1ccc(-c2nnc(-c3cccc(Br)c3)o2)cc1 | 2.24 µM [falling, full curve] | – |
| COc1ccc(N2C(=O)CSC23C(=O)Nc2ccccc23)cc1OC (stereo unspecified) | 11.2 µM [rising, partial curve, poor fit] | – |
| COc1cccc(-n2nc(-c3ccnn3-c3ccccc3)c(=O)n(C)c2=O)c1 | 16.4 µM [falling, single point] | – |
| Cc1ccc2nc(C)cc(C(=O)OCC(=O)c3ccc(Cl)c([N+](=O)[O-])c3)c2c1 | 22.4 µM [falling, single point] | – |
| COc1ccccc1C1=NNC(=Nc2cccc(S(=O)(=O)N(C)C)c2)SC1 | 12.6 µM [falling, partial curve] | – |
| Cc1ccc(N2CCN(CC(O)COc3cccc(C)c3)CC2)cc1 (stereo unspecified) | 7.94 µM [rising, partial curve] | – |
| N#Cc1cc(S(=O)(=O)c2ccccc2)c(N)[nH]c1=O | 23.1 µM [falling, partial curve] | – |
| O=C(Nc1ccc2c(c1)CCC2)c1ccc(Br)s1 | 14.1 µM [falling, single point] | – |
| Cn1cc(-c2nnc(-c3ccccc3)o2)c2ccccc21 | 1.12 µM [falling, full curve] | – |
| CCOc1ccc(/C=N/NC(=O)c2cc3c(OC)cccc3[nH]2)cc1 | 3.16 µM [falling, full curve] | – |
| CCN1CCN(S(=O)(=O)c2ccc3c(c2)OCCO3)CC1 | 0.00461 µM [falling, full curve] | – |
| O=C(COC(=O)CNC(=O)c1cccc(Br)c1)Nc1nnc(-c2ccccc2)o1 | 23.1 µM [falling, partial curve, poor fit] | – |
| Cc1c(-c2cc(Br)ccc2O)nc2cc3c(cc2c1C)OCO3 | 1.41 µM [rising, full curve] | – |
| COc1cccc(NC(=O)CN(C)C(=O)c2cc(-c3cccc(Br)c3)nc3ccccc23)c1 | 14.6 µM [falling, single point] | – |
